These are yes or no findings as the source states them, for the method shown. Some results given as binding are weak or reduced against the parent protein; the word gives no strength.
Molecular target: YFP-RhoA·GTPγS (UniProt P61586)
Assay: FRET or BRET; competition: non-fluorescent PH domain titrated into 1 μM YFP-RhoA·GTPγS + 1 μM CFP-PRG-PH; 20 mM NaHEPES pH 7.5, 1 mM EDTA, 1 mM DTT, 100 mM NaCl, 5 mM MgCl2; 25 °C; ratio 525/475 nm; both purified

The chains behind the UniProt entries cited, without tags or fusion partners.
UniProt P61586: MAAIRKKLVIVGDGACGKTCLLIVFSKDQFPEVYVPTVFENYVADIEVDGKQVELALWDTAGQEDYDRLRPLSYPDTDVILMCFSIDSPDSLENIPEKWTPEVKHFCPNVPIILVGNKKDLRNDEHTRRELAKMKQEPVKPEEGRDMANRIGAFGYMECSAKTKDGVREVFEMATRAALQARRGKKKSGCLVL

B1: PH domain from p190RhoGEF (domain or fragment, UniProt Q8N1W1 1086-1188)
chain: TLLYDGLVYWKTATGRFKDILALLLTDVLLFLQEKDQKYIFAAVDQKPSVISLQKLIAREVANEERGMFLISASSAGPEMYEIHTNSKEERNNWMRRIQQAVE
- binding: binds

Reference: paper PMC5988292
